US6515005B2, “Substituted azole derivatives as inhibitors of corticotropin releasing factor” (Bristol-Myers Squibb Company, priority 2000, dated 2003)

Chains of the proteins cited; added tags and fusions are not shown. Residues count along the entry.
UniProt P34998, 24-415 limits assumed: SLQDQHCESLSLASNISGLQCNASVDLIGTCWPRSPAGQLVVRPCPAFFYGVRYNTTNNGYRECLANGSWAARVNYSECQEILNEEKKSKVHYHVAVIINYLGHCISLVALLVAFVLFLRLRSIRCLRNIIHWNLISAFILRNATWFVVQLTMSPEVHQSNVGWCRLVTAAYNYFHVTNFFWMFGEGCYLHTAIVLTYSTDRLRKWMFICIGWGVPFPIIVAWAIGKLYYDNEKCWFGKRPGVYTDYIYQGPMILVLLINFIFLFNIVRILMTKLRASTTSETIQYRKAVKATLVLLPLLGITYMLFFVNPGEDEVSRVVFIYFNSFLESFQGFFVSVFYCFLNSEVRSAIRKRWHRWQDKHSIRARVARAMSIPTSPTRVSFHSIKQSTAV

Biological target: CRF1 receptor (Homo sapiens, UniProt P34998)
Experiment: CRF1 receptor radioligand binding assay ([125I]-oCRF competition, IMR-32 cell membranes)
Conditions: Second Set of Examples (Table 2), [125I]-oCRF (100 pM)

Structure (SMILES): FC(F)(F)c1nc(Nc2c(Cl)cc(Cl)cc2Cl)sc1CNCc1ccc(Cl)cc1
- IC50: 6.27 µM

The structures given here were assigned with low confidence; some may be wrong.
